Literature values as cited in patent US20240285555A1, “COMPOSITIONS FOR THE TREATMENT OF COPPER DEFICIENCY AND METHODS OF USE” (priority 2018, published 2024).
For at least one compound, name, drawing or mass did not settle the structure.

Test system: mouse model of Menkes disease
Settings: co-administration of copper with disulfiram; cited from earlier work

CCN(CC)C(=S)SSC(=S)N(CC)CC [disulfiram]
activity of CcO in the brains: increased the activity of CcO
